We go through 40 compounds from PubChem BioAssay AID2685 (National Center for Advancing Translational Sciences (NCATS), 2010).

Each structure is given as a SMILES string. Some of the results follow. Further columns of the screen follow, without active or inactive calls. The list favours compounds with an active or inconclusive main result. Words in brackets tell the shape of the fitted curve; partial curves, single points and poor fits give uncertain potencies.

The assay in a line: qHTS Assay for Lipid Storage Modulators in Drosophila S3 Cells.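 For cell number change: cells counted by Cell Tracker Red CMTPX staining in the red channel.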 Particulars: BODIPY lipid droplet fluorescence, 18-24 h; for cell number change: measured here: cell count max response, cells fed with added oleic acid. The essentials: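 Drosophila S3 cells got compounds at several concentrations plus oleic acid (400 uM solution). Laser-scanning cytometry with 488 nm excitation read lipid droplets at 500-530 nm and cells at 575-640 nm. Percent activity was relative to 20 uM Triacsin C.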
A general note: qHTS replaces the single test concentration by a dilution series.

Setting [1] is: measured here: cell number channel AC50, cells fed with added oleic acid.
The mark [2] stands for this setting: measured here: lipid fluorescence (Fed channel) AC50, cells fed with added oleic acid.

In the case of `Cn1c(=O)c2cc(NC(=O)c3ccccc3Cl)c(=O)oc2n(C)c1=O`, the cell number change is -6.25%.
One may read the AC50 as the midpoint of the concentration-response curve, whichever way the signal moves. Low readings indicate activity at low concentration, high ones activity only at high concentration. For `Cc1oc2c(O)c(O)ccc2c(=O)c1-c1cnn(-c2ccccc2)c1`, the cell number change is -26.2%. The AC50 under setting [1] is 0.517 µM [falling, full curve, poor fit].
Consider `CN(C)CCCCOc1ccc(Br)cc1Cl`, for which the cell number change was 18.6%. In addition, the AC50 under setting [1] is 3.26 µM [falling, single point].
With `O=C(NCc1ccccn1)C(=O)NCC1OCCCN1S(=O)(=O)c1ccc(F)cc1` (centres undefined), the cell number change turned out to be 16.1%. In addition, the AC50 under setting [1] is 2.06 µM [rising, partial curve, poor fit]. Moreover, the AC50 under setting [2] was 29.1 µM [rising, single point].
As for `CCOc1ccc(N(C(C)C(=O)N2CCCCCC2)S(C)(=O)=O)cc1` (centres undefined), the cell number change is -3.67%. The AC50 under setting [2] is 29.1 µM [falling, single point].
As for `O=[N+]([O-])c1cc2c(cc1CN1CCN(c3ccccc3)CC1)OCO2`, the cell number change is -5.11%. Besides, under setting [2], the half-maximal activity concentration (AC50) was 29.1 µM [falling, single point].
With `Cn1c(N)c(C(=O)COC(=O)CSc2ccc3ccccc3c2)c(=O)n(C)c1=O`, the cell number change was -0.563%. For the same compound, under setting [2], the AC50 is 6.51 µM [rising, single point].
Consider `C=CCn1c(SCC(=O)c2cccs2)nc2sc(CC)cc2c1=O`, for which the cell number change is -4.74%.
Regarding `O=C(Nc1sccc1C(=O)N1CCOCC1)c1cccnc1`, the AC50 under setting [2] is 0.58 µM [falling, single point].
Take `O=C(Nc1cccc(Cl)c1Cl)c1cc(S(=O)(=O)NCCc2ccccc2)ccc1F`: the AC50 was 1.64 µM [rising, partial curve, poor fit] under setting [1] and 0.092 µM [rising, partial curve] under setting [2].
For `CCOC(=O)c1ccc(N=Nc2c(C)[nH]n(-c3ccccc3)c2=O)cc1`, the cell number change is 27.7%. The AC50 under setting [1] was 0.731 µM [rising, full curve, poor fit]. The AC50 under setting [2] was 3.26 µM [falling, full curve].
`Cc1nn2c(NCCN3CCOCC3)c3c(nc2c1-c1ccccc1)CCCC3`: the cell number change was -14%. Further, the AC50 under setting [2] is 16.4 µM [falling, single point].
In the case of `C/C(=N\NC(=O)CSCc1ccc([N+](=O)[O-])cc1)c1cccc(Br)c1`, the cell number change was determined as 8.31%. The AC50 under setting [1] is 6.51 µM [rising, partial curve, poor fit]. Besides, under setting [2], the AC50 is 1.64 µM [rising, single point].
Regarding `Cc1ccc(/C=N/NC(=O)c2cccs2)cc1[N+](=O)[O-]`, the cell number change is -14%. Further, the AC50 under setting [2] is 2.31 µM [rising, partial curve, poor fit].
Turning to `CCCSC1=N/C(=C/c2ccsc2)C(=O)N1c1ccccc1`, the cell number change was found to be 20.5%. Besides, the AC50 under setting [1] is 0.517 µM [falling, single point]. Also, the concentration at half-maximal activity (AC50) under setting [2] is 1.16 µM [falling, single point].
Take `Cc1nonc1NC(=O)CSc1nc2ccc(Cl)cc2[nH]1`: the cell number change amounted to 10.4%. Moreover, the AC50 under setting [2] was 29.1 µM [rising, partial curve].
For the compound `CCN(CC(=O)Nc1ccc(C)c(F)c1)CC(=O)NC(C)C`, the cell number change was -2.98%. Moreover, the AC50 under setting [2] was 0.0058 µM [rising, full curve, poor fit].
Consider `O=C(NCCN1CCOCC1)c1ccccc1Cl`, for which the cell number change was found to be 17.5%.
In the case of `O=C(CCc1nc(-c2ccccc2F)no1)NC1CCCCCC1`, the cell number change is -21.3%. In addition, the AC50 under setting [2] was 1.46 µM [rising, partial curve].
Consider `Cc1cccc(N=Nc2c(N)n[nH]c2-c2ccc(Cl)cc2)c1`, for which the cell number change was -73.8%. In addition, the concentration at half-maximal activity (AC50) under setting [1] was 20.6 µM [falling, partial curve]. Further, under setting [2], the half-maximal activity concentration (AC50) is 20.6 µM [falling, single point].
As to `Cc1ccccc1-n1c(SCC(=O)N/N=C/c2c(C)nn(-c3ccccc3)c2C)nc2ccccc2c1=O`, under setting [2], the AC50 is 0.103 µM [falling, full curve].
`CC(C)OC(=O)CSc1nnc(Cc2ccccc2)n1CC1CCCO1` (centres undefined): the cell number change was determined as 5.95%.
On to `CCOC(=O)C1=C(C)NC(C)=C(C(=O)OCC)C1C(=O)OCC(=O)N1c2ccccc2CC1C` (centres undefined), for which the cell number change worked out at 6.11%.
Consider `Cn1c(=O)[nH]c(=O)c2c1nc(Br)n2Cc1ccccc1Cl`, for which the cell number change was -2.52%. The AC50 under setting [2] was 11.6 µM [rising, partial curve].
Turning to `O=C(CN(Cc1ccccc1)S(=O)(=O)c1ccc(Cl)cc1)NCC1CCCO1` (centres undefined), the cell number change is 19.7%.
`COc1ccccc1NS(=O)(=O)c1ccc(C(N)=O)cc1`: the cell number change amounted to 0.616%. In addition, the AC50 under setting [2] is 4.61 µM [rising, full curve, poor fit].
As for `O=C(CSc1nnnn1-c1cccnc1)Nc1ccccc1F`, the cell number change is -4.7%. In addition, the AC50 under setting [2] was 5.8 µM [rising, full curve].
Turning to `COc1cc2c(cc1OC)CN(C(=O)c1ccco1)CC2`, the cell number change stood at 2.1%.
Same read-out and setting: as for `CCOC(=O)c1cnc(-n2nc(C)cc2C)nc1Nc1cccc(C(=O)O)c1`, the figure is 9.71%.
Turning to `Cc1cc(C(=O)CSc2nnnn2-c2ccccc2)c(C)n1-c1ccc2c(c1)OCO2`, the cell number change came out at 8.15%. Besides, the AC50 under setting [2] is 0.103 µM [falling, full curve, poor fit].
For `COc1ccc(-c2ccc(C(=S)N3CCN(C(C)=O)CC3)o2)cc1`, the cell number change was -14.4%.
Turning to `O=[N+]([O-])c1ccc(Cl)c(/C=N/Nc2nc(N3CCOCC3)nc(N3CCOCC3)n2)c1`, the cell number change came out at 28.2%. For the same compound, the half-maximal activity concentration (AC50) under setting [1] is 0.231 µM [rising, full curve, poor fit]. Also, the AC50 under setting [2] was 3.66 µM [rising, full curve].
With `CCN(CC)CCCn1c2c(c(SCC(=O)Nc3cccc(C(C)=O)c3)nc1=O)CCC2`, the cell number change was -3.52%.
For `CCOc1ccc(/C=N/NC(=O)Cc2csc(Nc3cccc(C(F)(F)F)c3)n2)cc1`, the cell number change is -92.8%. For the same compound, the AC50 under setting [1] is 29.1 µM [falling, single point]. Also, the AC50 under setting [2] was 29.1 µM [falling, single point].
`O=S1(=O)CC(O)C(NCc2ccco2)C1` (centres undefined): the cell number change is -12.9%. Further, the AC50 under setting [2] was 29.1 µM [falling, single point].
Consider `COc1cc(CN2CCCCCC2)cc(Br)c1O`, for which the cell number change was 36.1%. Under setting [1], the AC50 is 0.184 µM [rising, full curve, poor fit].
In the case of `COc1ccc(NC(=O)COC(=O)c2cc(Cl)ccc2O)cc1S(=O)(=O)N1CCCCC1`, the cell number change came to 1.38%. Moreover, under setting [2], the AC50 is 0.103 µM [rising, full curve, poor fit].
Turning to `COc1ccc(C(=O)OCC#CCSc2nnc(-c3cccc4ccccc34)o2)cc1`, the AC50 runs as follows: under setting [1], 0.13 µM [rising, full curve, poor fit]; under setting [2], 0.146 µM [rising, full curve, poor fit].
As to `Cc1ccc(C(C(=O)NC2CCCCC2)N(C(=O)c2csnn2)C2CC2)cc1` (centres undefined), the cell number change is -17.9%.
With `O=c1c2cn(Cc3ccccc3)c3ccccc3c-2nn1Cc1ccc(F)cc1Cl`, the cell number change amounted to 19.4%. Besides, the AC50 under setting [1] is 7.31 µM [rising, single point].
